PubChem BioAssay AID1224826 – NIAID, 2016

Aim: 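Knock-downs that raise or lower Tnf reporter signal after endotoxin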 (primary screen)
Cells: RAW264.7 G9 macrophages from mouse bearing reporters for p65 (GFP) and the Tnf promoter (mCherry)
Knock-down reagent: siRNA pool against mouse genes, 100 nM
Timing: 16 h of LPS stimulation, after 2 days of siRNA transfection
Challenge: bacterial lipopolysaccharide (Salmonella minnesota R595), 10 ng/ml
Measured: 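Imaged Tnf reporter mCherry in nuclei, minus background, normalised per plate to the median and expressed as robust z-scores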
Direction: Tnf reporter robust z-score: higher = stronger Tnf promoter reporter signal after LPS
Active means: 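a well counts as active at a score of -1.3 or below (Tlr4 knock-down control median) or above 3 (raised signal); controls and wells holding fewer than 50 cells are excluded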
Calls: active = Tnf reporter clearly lowered or raised; inactive = no clear change in Tnf reporter
The deposit covers about 17,000 reagents; shown is a random part of them. About 1,110 of them (6.6%) were called active. 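Active means lowered or raised reporter signal; replicate intensities are raw and not normalised per plate.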 Entries without a mark were called inactive. The numbers tell different reagents against one gene apart. Not all columns of the deposit are shown. No sequences are given here.

Target gene	reagent	Tnf reporter robust z-score	fewer than 50 cells in well
Prl3d3 (prolactin family 3, subfamily d, member 3)	1	-0.83	enough cells in well
Polr3f (polymerase (RNA) III (DNA directed) polypeptide F)	1	1.04	enough cells in well
Rbm4b (RNA binding motif protein 4B)	1	2.64	enough cells in well
Slc8a1	1	0.17	enough cells in well
Slc8a1	2	0.06	enough cells in well
Gfra1	1	1	enough cells in well
Basp1 (brain abundant, membrane attached signal protein 1)	1	0.12	enough cells in well
Popdc3 (popeye domain containing 3)	1	0.67	enough cells in well
Mta1 (metastasis associated 1)	1	0.46	enough cells in well
Tox3 (TOX high mobility group box family member 3)	1	-1.04	enough cells in well
Gpbp1 (GC-rich promoter binding protein 1)	1	-0.11	enough cells in well
Ccl21b (C-C motif chemokine ligand 21B (leucine))	1	0.28	enough cells in well
Samd12 (sterile alpha motif domain containing 12)	1	-1	enough cells in well
Tenm2 (teneurin transmembrane protein 2)	1	-1.34 (active)	enough cells in well
Zranb1 (zinc finger, RAN-binding domain containing 1)	1		fewer than 50 cells per well; well left out of calls
Spint4 (serine protease inhibitor, Kunitz type 4)	1	1.25	enough cells in well
Gtse1 (G two S phase expressed protein 1)	1	1.55	enough cells in well
Sim2 (single-minded family bHLH transcription factor 2)	1	-0.35	enough cells in well
Mgst2 (microsomal glutathione S-transferase 2)	1	0.41	enough cells in well
Itpr3 (inositol 1,4,5-triphosphate receptor 3)	1	-1.26	enough cells in well
Or5k1b (olfactory receptor family 5 subfamily K member 1B)	1	0.67	enough cells in well
Sugt1 (SGT1, suppressor of G2 allele of SKP1 (S. cerevisiae))	1		fewer than 50 cells per well; well left out of calls
Gpr135 (G protein-coupled receptor 135)	1	0.85	enough cells in well
Lrrc26 (leucine rich repeat containing 26)	1	0.09	enough cells in well
Synb (syncytin b)	1	0.8	enough cells in well
Rnd2 (Rho family GTPase 2)	1	0.43	enough cells in well
Chil3 (chitinase-like 3)	1	-0.57	enough cells in well
Gpc6 (glypican 6)	1	-0.36	enough cells in well
Lrfn5	1	-1	enough cells in well
Csf2rb2	1	-0.16	enough cells in well
Ptp4a1 (protein tyrosine phosphatase 4a1)	1	-0.01	enough cells in well
Ide (insulin degrading enzyme)	1	-0.54	enough cells in well
Abcg1 (ATP binding cassette subfamily G member 1)	1	1.54	enough cells in well
Sh3glb2 (SH3-domain GRB2-like endophilin B2)	1	1.07	enough cells in well
Zbtb7c (zinc finger and BTB domain containing 7C)	1	-0.46	enough cells in well
Speer3 (spermatogenesis associated glutamate (E)-rich protein 3)	1	1.54	enough cells in well
Qtman (queuosine-tRNA mannosyltransferase)	1	-1.59 (active)	enough cells in well
Or55b4 (olfactory receptor family 55 subfamily B member 4)	1	-0.47	enough cells in well
Mrc2 (mannose receptor, C type 2)	1	0.09	enough cells in well
Gpd1 (glycerol-3-phosphate dehydrogenase 1 (soluble))	1	-0.24	enough cells in well
Bcl7c (B cell CLL/lymphoma 7C)	1	1.28	enough cells in well
H3f3b (H3.3 histone B)	1	1.72	enough cells in well
Prim2 (DNA primase, p58 subunit)	1	-0.63	enough cells in well
Dennd5b (DENN domain containing 5B)	1	0.1	enough cells in well
C2cd2 (C2 calcium-dependent domain containing 2)	1	-0.83	enough cells in well
Tmem65 (transmembrane protein 65)	1		fewer than 50 cells per well; well left out of calls
Capzb (capping actin protein of muscle Z-line subunit beta)	1		fewer than 50 cells per well; well left out of calls
Or10a2 (olfactory receptor family 10 subfamily A member 2)	1	0.92	enough cells in well
H3c8 (H3 clustered histone 8)	1	0.09	enough cells in well
Prl2b1 (prolactin family 2, subfamily b, member 1)	1	0.49	enough cells in well
Upp1 (uridine phosphorylase 1)	1	0.68	enough cells in well
Htr5a (5-hydroxytryptamine (serotonin) receptor 5A)	1	-0.28	enough cells in well
Junb (jun B proto-oncogene, AP-1 transcription factor subunit)	1	0.04	enough cells in well
Slc22a1	1		fewer than 50 cells per well; well left out of calls
Pfpl (pore forming protein-like)	1	0.14	enough cells in well
4833420G17Rik (RIKEN cDNA 4833420G17 gene)	1		fewer than 50 cells per well; well left out of calls
Srfbp1 (serum response factor binding protein 1)	1	-0.15	enough cells in well
Or8k23 (olfactory receptor family 8 subfamily K member 23)	1	0.14	enough cells in well
